At least one compound was matched to its structure with a doubt left.
Legend:
CWR-R1 cells = test: In vitro proliferation of CWR-R1 cells; type: cell-based; conditions: 10^-5 M bicalutamide, FCS, cells counted 5 days after treatment (FIG. 6B)
Experimental: CWR-R1 cells were cultured in whole fetal calf serum (FCS), in the absence or in the presence of […] of bicalutamide. CXCL5 RNA levels were measured by real-time PCR. […] Results represent the mean±SD of 3 independent experiments. B. CXCL5 enhances the proliferation of CWR-R1 cells both in the absence and in the presence of the anti-androgen bicalutamide. CWR-R1 cells were cultured in FCS. Some cells were treated with 10^-5 M bicalutamide. The cells were either treated with Ethanol vehicle (C) or with CXCL5 (1 or 50 ng/ml). Proliferation was quantified 5 days after treatment by counting the cells.
2.5×10^4 cells per well were seeded in triplicate in 24-well culture plates in complete growth media previously described. Cell numbers were determined every two days for 6 days by counting with a malassez slide or by measuring of luciferase activity. For proliferation in complete fetal calf serum, cells were maintained in […] with RPMI 1640. To test the effects of androgens, cells were maintained in phenol-red free RPMI 1640 medium supplemented with 10% FCS.

[1] = tested on: CXCL5 RNA levels in CWR-R1 cells; test: CXCL5 RNA levels by real-time PCR in CWR-R1 cells; type: cell-based; conditions: CWR-R1 cells in FCS, 0.1, 1 or 10 WI of bicalutamide; CXCL5 levels in FCS set to 1 (FIG. 6A)
From the text: (§1) Results represent the mean±SD of 3 independent experiments.
as §1

CC(O)(CS(=O)(=O)c1ccc(F)cc1)C(=O)Nc1ccc(C#N)c(C(F)(F)F)c1 (centres unmarked) [bicalutamide]
proliferation of CWR-R1 cells (CWR-R1 cells): reduced proliferation
increase of CXCL5 RNA [1]: two to three
